# Measured values taken from PubChem BioAssay AID1347075 (National Center for Advancing Translational Sciences (NCATS), 2019).
# Hit rate of the full screen: of about 400,000 compounds, about 5,500 (1.4%) were called active. The inconclusive results got no clear call from the source; some entries with a clear call stand among them for comparison. Calls come from the whole dose curve; as a rule, active = well fitted cell-killing curve with a large enough effect; inconclusive = small, poorly fitted or top-dose-only effect, or effect the other way; inactive = flat fitted curve, though single readings scatter. A potency beside an inconclusive call is a rough fit, not a confirmed value.
# Assay: qHTS assay for MDR1-selective chemotherapeutics: Primary screen using the parental adenocarcinoma cell KB-3-1; note: nearly all actives have a fitted effect of over 60% in size
# Conditions: KB-3-1 viability, CellTiter-Glo ATP luminescence, 72 h; series mostly up to 46.1 µM
# How it was run: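 Parental KB-3-1 adenocarcinoma cells in phenol-red-free DMEM with 10% FBS were pin-treated with compounds at several concentrations, incubated 72 h at 37 °C, and viability read by CellTiter-Glo luminescence; concentration-effect curves were fitted after normalization.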
# Potency is the fitted concentration of half-maximal effect.
row,SMILES,Potency
1,CCn1c(N2CCN(CC(=O)c3c(C)n(C)c4ccc(OC)cc34)CC2)nc2c1c(=O)[nH]c(=O)n2C,active: 20.6 µM
2,C/C(CC(=O)Nc1cc(C)ccn1)=N\NC(=O)c1cccc(C)c1,"inconclusive: 1.3 µM [cytotoxic, partial curve, poor fit]"
3,COc1ccc(CCNC(=O)c2cnc3sc(N4CCC(C)CC4)nn3c2=O)cc1OC,inactive
4,CC(C)=CCc1c(O)c(CC=C(C)C)c2c(c1O)C(=O)CC(c1ccc(O)cc1)O2 (stereo not drawn),"inconclusive: 18.4 µM [cytotoxic, single point]"
5,COc1ccc(CNC(=O)C(C)N(C)Cc2cccc(F)c2)cc1 (stereo not drawn),inactive
6,O=C(NCC(=O)N(c1ccc(F)cc1)C(C(=O)NC1CCCCC1)c1cccnc1)c1ccco1 (stereo not drawn),inactive
7,Cn1cc(/C=C(\C#N)C(=O)Nc2ncc(Cc3ccc(Cl)cc3)s2)c2ccccc21,"inconclusive: 14.6 µM [cytotoxic, single point]"
8,C#CC[N+](CC)(CC)CC#Cc1ccccc1,inactive
9,Cc1ccc(C(=O)C2CCN(CC(=O)Nc3nc(C)cs3)CC2)cc1,inactive
10,CC1=CN2C(=N)/C(=C/c3ccc(Sc4ccc(C)cc4)o3)C(=O)N=C2S1,inactive
11,C[C@@H]1CN([C@H](C)CO)C(=O)CCCn2nncc2CO[C@@H]1CN(C)S(=O)(=O)c1ccccc1C#N,"inconclusive: 2.59 µM [cytotoxic, full curve]"
12,CCn1ccc2cc(S(=O)(=O)N3CCCN(C(=O)Nc4ccc(C)c(F)c4)CC3)ccc21,"inconclusive: 23.1 µM [cytotoxic, single point]"
13,COc1ccc(C)cc1NC(=O)Nc1cnccn1,inactive
14,COc1ccc(NC(=O)c2ccc3c(=O)n(-c4ccc(OC)cc4OC)c(=S)[nH]c3c2)cc1,"inconclusive: 20.6 µM [cytotoxic, single point]"
15,CCc1ccc(OCCCC(=O)Nc2cccc(C(=O)O)c2)cc1,inactive
16,COc1ccc(-c2noc(CCCC(=O)NC3CCCC3)n2)cc1,"inconclusive: 2.06 µM [cytotoxic, partial curve, poor fit]"
17,Cc1cccc(N(C)c2nc3ccc(C)cc3n3cnnc23)c1,inactive
18,CC(C)CC(=O)NCC1(N(C)C)CCCCC1,inactive
19,COc1ccc(CNC(=O)C(C)N2Cc3ccccc3C2=O)cc1 (stereo not drawn),inactive
20,CCS(=O)(=O)N1Cc2ccccc2CC1C(=O)Nc1nc2ccc(C)cc2s1 (stereo not drawn),"inconclusive: 29.1 µM [cytotoxic, single point]"
21,COc1cc2c(-c3ccc(O)cc3)nc3c(c(C)nn3-c3ccccc3)c2cc1OC,"inconclusive: 20.6 µM [cytotoxic, single point]"
22,COc1cc2c(cc1OC)C(COc1ccccc1OC)N(C(=O)C(C)(C)C)CC2 (stereo not drawn),"inconclusive: 23.1 µM [cytotoxic, single point]"
23,CC(C)(C)OC(=O)CC1(C#N)c2ccccc2C(Br)=CN1C(=O)c1ccccc1 (stereo not drawn),inactive
24,O=C(CCN1C(=O)/C(=C/c2ccco2)SC1=S)Nc1ccc(O)cc1C(=O)O,inactive

# As entered above:
# `CCn1ccc2cc(S(=O)(=O)N3CCCN(C(=O)Nc4ccc(C)c(F)c4)CC3)ccc21` – Potency: inconclusive: 23.1 µM [cytotoxic, single point]
# `COc1ccc(CNC(=O)C(C)N2Cc3ccccc3C2=O)cc1` (stereo not drawn) – Potency: inactive
# `COc1ccc(NC(=O)c2ccc3c(=O)n(-c4ccc(OC)cc4OC)c(=S)[nH]c3c2)cc1` – Potency: inconclusive: 20.6 µM [cytotoxic, single point]
# `CC(C)CC(=O)NCC1(N(C)C)CCCCC1` – Potency: inactive

# Additional structures follow.

row,SMILES,Potency
1,COc1cccc(/C=C2\SC(=S)N(CCCC(=O)N3CCCCC3CCO)C2=O)c1 (stereo not drawn),inactive
2,COc1cccc(C2=NOC(C(=O)Nc3cc(C)nn3-c3ccccc3)C2)c1OC (stereo not drawn),"inconclusive: 29.1 µM [cytotoxic, single point]"
3,O=C(O)/C=C/c1cccc(B(O)O)c1,"inconclusive: 23.1 µM [rising, single point]"
4,Cc1cccc(-c2nc(CSCC(=O)N3CCN(c4ccccc4)CC3)c(C)o2)c1,inactive
5,CCN(CC)C(=O)Oc1ccc2ccccc2c1Br,"inconclusive: 13 µM [cytotoxic, single point]"
6,Cc1cccc(N2CCN(C(=O)Cn3cnc4sc(C)c(S(=O)(=O)N5CCN(c6ncccn6)CC5)c4c3=O)CC2C)c1 (stereo not drawn),inactive
7,OC(c1ccc(F)cc1)c1nc(-c2csc3ccccc23)cs1 (stereo not drawn),inactive
8,CCC(C)NC(=O)C1CCN(C(=O)c2ccc(-n3ccc4ccccc43)s2)CC1 (stereo not drawn),inactive
9,O=C1CC(/C=C/c2cccnc2)=Nc2ccccc2N1,"inconclusive: 29.1 µM [cytotoxic, single point]"
10,COc1ccccc1-c1c(C)nn2c(N3CCC4(CC3)OCCO4)cc(C)nc12,"inconclusive: 29.1 µM [cytotoxic, single point]"
11,O=C1C(=O)c2ccccc2C(O)=C1CC=C(Cl)Cl,active: 14.6 µM
12,COc1ccc(CNC(=O)COC(=O)c2ccc(OCC3CCCO3)cc2)cc1 (stereo not drawn),"inconclusive: 23.1 µM [cytotoxic, single point]"
13,COc1ccccc1CCNC(=O)C1CCC(=O)N(C2CCCCCC2)C1 (stereo not drawn),inactive
14,CN(C)c1ccc(/C=C/c2nc3ccccc3s2)c(Cl)c1,"inconclusive: 29.1 µM [cytotoxic, single point]"
15,O=C(Cc1c(F)cccc1Cl)NNC(=O)c1ccco1,"inconclusive: 18.4 µM [rising, single point]"
16,Cc1cc(Sc2nnc(/N=C/N(C)C)s2)c2ccccc2n1,"inconclusive: 29.1 µM [cytotoxic, single point]"
17,CCCNC(=O)c1cc2c(c(-c3cccc(-c4cc5ccccc5o4)c3)n1)[C@@H](CCO)N(C(=O)NC(C)C)C2,"inconclusive: 29.1 µM [cytotoxic, single point]"
18,O=C(O)c1ccccc1Nc1ccc([N+](=O)[O-])cc1,active: 9.2 µM
19,COc1ccccc1CNC(=O)CCC1N=C2c3ccccc3N=C(SCc3ccccc3Cl)N2C1=O (stereo not drawn),"inconclusive: 32.6 µM [cytotoxic, single point]"
20,COc1ccccc1N1CCN(c2cc(=O)n(-c3ccccc3Cl)c(=O)[nH]2)CC1,"inconclusive: 29.1 µM [cytotoxic, single point]"
21,COc1cc(SC)ccc1C(=O)Nc1nc2ccccc2[nH]1,active: 2.91 µM
22,CC(Oc1ccccc1)C(=O)Nc1cccc([N+](=O)[O-])c1 (stereo not drawn),inactive
23,O=S(=O)(c1ccc(Br)cc1)N1CCOCC1,inactive
24,Cc1onc(-c2ccccc2Cl)c1C(=O)Nc1ccc(S(=O)(=O)N2CCCC2)cc1,"inconclusive: 29.1 µM [cytotoxic, single point]"
